Record: PubChem BioAssay AID1508588 (Peter MacCallum Cancer Centre, 2020)

Assay: 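Genome-wide search for knock-downs that heighten vemurafenib action in melanoma cells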 (primary screen)
Cell system: human WM266.4 melanoma cells (BRAF V600 mutant)
Reagent: siRNA pool against human genes, 40 nM
Timing: 96 h from transfection to read-out
Challenge: vemurafenib 300 nM (about IC25), added 48 h after transfection, for 48 h; comparison arm got DMSO vehicle only
Measurement: 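Cell gain (DAPI nuclei at end minus before drug, mean of two replicates) and medium lactate by absorbance per cell, both as ratio to non-targeting siRNA, also grouped into fold-change classes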
Direction: cell gain with vemurafenib: higher = more cell gain than with non-targeting siRNA; lactate per cell with vemurafenib: higher = more lactate made per cell
Rule for the call: 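a knock-down counts as enhancing when its fold-change classes with vehicle and with vemurafenib, taken together, show a stronger drug effect on cell gain or lactate per cell; exact class pairs not stated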
Meaning of the calls: active = enhances vemurafenib effect; inactive = no enhancement seen
The whole screen tested about 18,000 reagents; this is an unselected part. 790 of all reagents (4.4%) count as active. 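Calls rest on a combination of fold-change classes in drug and vehicle arms, not all shown here.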 Entries without a mark were called inactive. The numbers tell different reagents against one gene apart.

Gene	pool no.	cell gain with vemurafenib	lactate per cell with vemurafenib
TRMT13	1	0.65	0.62
EDEM2	1	0.53	0.98
NEBL	1	0.95	0.95
NEBL	2	0.67	0.67
SLC18A2	1	0.6	0.93
SEPSECS	1	0.81	0.46
FAM3C	1	0.74 (active)	0.7
TYMS	1	0.47	0.98
OR10V1	1	0.41	0.26
NPS	1	0.77	0.5
GBX2	1	0.76	1.28
CTBP1	1	0.73	1.45
DNASE1L3	1	0.66	0.82
ACTN4	1	0.47	0.95
SETX	1	0.47	0.57
POLD3	1	0.34	0.64
CSRP3	1	1.23	0.97
PIAS2	1	0.48	1.7
SLC38A9	1	0.84	0.6
RILPL2	1	0.66	0.98
PROSER2	1	0.61	0.67
DPF2	1	0.53	0.98
JMJD1C	1	0.73	0.84
MARVELD2	1	0.62	0.85
SGK3	1	0.47	1.64
ZNF638	1	0.74	0.6
RNF123	1	0.98	0.82
CNGA1	1	0.44	0.4
PLEC	1	1.06 (active)	0.38
EIF4A2	1	0.5	0.94
RINT1	1	0.34	1.54
CD300LB	1	0.93	1.21
SERPINB4	1	0.58	1.12
CSN1S1	1	0.02	1.93
PRLH	1	0.32	1.04
SENP2	1	-0.05	1.31
FPGS	1	0.71 (active)	0.49
CDV3	1	0.79	0.42
ZC3H6	1	0.68	1.08
CGRRF1	1	0.78	0.74
FGGY	1	1.01	0.53
FAM20B	1	0.12	2.54

16 of these entries in another layout:
ZNF638
- cell gain with vemurafenib: 0.74
- lactate per cell with vemurafenib: 0.6

RNF123
- cell gain with vemurafenib: 0.98
- lactate per cell with vemurafenib: 0.82

CNGA1
- cell gain with vemurafenib: 0.44
- lactate per cell with vemurafenib: 0.4

PLEC
- cell gain with vemurafenib: 1.06 (active)
- lactate per cell with vemurafenib: 0.38

EIF4A2
- cell gain with vemurafenib: 0.5
- lactate per cell with vemurafenib: 0.94

RINT1
- cell gain with vemurafenib: 0.34
- lactate per cell with vemurafenib: 1.54

CD300LB
- cell gain with vemurafenib: 0.93
- lactate per cell with vemurafenib: 1.21

SERPINB4
- cell gain with vemurafenib: 0.58
- lactate per cell with vemurafenib: 1.12

CSN1S1
- cell gain with vemurafenib: 0.02
- lactate per cell with vemurafenib: 1.93

PRLH
- cell gain with vemurafenib: 0.32
- lactate per cell with vemurafenib: 1.04

SENP2
- cell gain with vemurafenib: -0.05
- lactate per cell with vemurafenib: 1.31

FPGS
- cell gain with vemurafenib: 0.71 (active)
- lactate per cell with vemurafenib: 0.49

CDV3
- cell gain with vemurafenib: 0.79
- lactate per cell with vemurafenib: 0.42

ZC3H6
- cell gain with vemurafenib: 0.68
- lactate per cell with vemurafenib: 1.08

CGRRF1
- cell gain with vemurafenib: 0.78
- lactate per cell with vemurafenib: 0.74

FGGY
- cell gain with vemurafenib: 1.01
- lactate per cell with vemurafenib: 0.53

Next results follow:
Gene	pool no.	cell gain with vemurafenib	lactate per cell with vemurafenib
TMEM88	1	1.08	0.64
METTL25	1	0.67	1.25
TMEM33	1	0.14	3.07
DNAJB13	1	0.43	0.93
KRT34	1	0.55	1.02
MEIS2	1	0.92	0.84
ENDOV	1	1.4	0.49
MED10	1	0.73	0.72
ARB2A	1	0.69	0.38
C4A	1	0.45	1.24
JMY	1	1	0.57
CENPS	1	0.51	1.02
GADD45GIP1	1	0.83	0.8
TLR9	1	0.26	0.76
GEM	1	0.47	0.86
CCDC107	1	0.28	1.54
F10	1	0.5	0.93
SAXO5	1	0.41	1.16
PEG3	1	0.29	0.38
BRD8	1	0.6	0.32
GSTT1	1	1.21	0.88
SNAP91	1	0.86	1.03
NXPE1	1	0.08	2.38
SLC17A3	1	0.31	1.72
TBC1D3G	1	0.98	0.88
TP53	1	1.16	0.2
FCGR1A	1	0.36	0.2
ESD	1	1.15	1
SUGT1	1	0.16	1.06
PLA2G4C	1	0.68	0.93
SLC25A43	1	0.4	0.57
UBE3D	1	0.17	2.4
IL12RB2	1	0.75	0.86
IFRD2	1	0.99	0.3
GUF1	1	0.55	0.87
MYO19	1	0.35	1.81
BLTP3B	1	0.61	0.84
CAMK2A	1	0.79	0.76
SCMH1	1	0.8	0.82
TSPO2	1	0.85	0.6
RCC2	1	1.02	0.46
MOCS2	1	0.68	1.13
FNIP1	1	0.56	1.64
OGDHL	1	0.44	1.8
CEACAM19	1	0.59	0.94
ABCA4	1	1.6	0.67
C10orf62	1	0.35	1.27
MS4A4A	1	0.35	1.12
PPFIA3	1	0.53	0.78
SACS	1	0.28	1.27
KPNB1	1	0.13	0.91
OR10X1	1	0.57	1.13
RP1	1	0.45	1.72
CKMT2	1	0.52	0.82
C4orf17	1	0.49	1.68
DRC1	1	0.41	1.1
GLRX3	1	0.63	0.69
PRPF4	1	0.12	0.7
KDM5D	1	0.96	0.86
G2E3	1	0.64 (active)	0.54
TUBGCP2	1	0.51	2.17
EPX	1	0.85	0.92
MSL3	1	0.6	2.14
MRFAP1L1	1	0.5	0.72
OSBPL1A	1	1.35	0.6
